The experiment concerns the target T1, Cysteine-rich intestinal protein 1 (CRIP1), purified chimeric protein not reacted with enterokinase (human) (UniProt P50238).
T1 sequence: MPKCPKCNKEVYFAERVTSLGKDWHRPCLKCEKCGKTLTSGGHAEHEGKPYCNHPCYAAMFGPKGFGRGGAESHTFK
Nature of the experiment: ELISA; individual phage clones against immobilised purified chimeric CRIP1 (not reacted with enterokinase); relative binding affinities; only the target purified.

No constants are given. Whether binding was seen depends on the method and setting. Some binding calls cover weakened binding; strength is not graded here.

B1: phage clone C5 (peptide displayed on pIII) (peptide)
peptide: CTPRQSPICGGGS
Take B1: the binding result is “binds”.

B2: phage clone B5 (peptide displayed on pIII) (peptide)
peptide: CYDPIWRTCGGGS
B2: the binding entry is listed as “binds”.

B3: phage clone A1 (peptide displayed on pIII) (peptide)
peptide: CLKDNHRSCGGGS
Consider B3, for which the binding result was “binds”.
